Test results reported in PMC6482197, “Inhibition of HtrA2 alleviated dextran sulfate sodium (DSS)-induced colitis by preventing necroptosis of intestinal epithelial cells” (Cell Death & Disease, 2019).
These are yes or no findings as the source states them, for the method shown. In cells and extracts the contact can be indirect. Some results given as binding are weak or reduced against the parent protein; the word gives no strength.

Protein sequences, listed by entry. Tags and fused reporters are not part of them.
UniProt Q13546: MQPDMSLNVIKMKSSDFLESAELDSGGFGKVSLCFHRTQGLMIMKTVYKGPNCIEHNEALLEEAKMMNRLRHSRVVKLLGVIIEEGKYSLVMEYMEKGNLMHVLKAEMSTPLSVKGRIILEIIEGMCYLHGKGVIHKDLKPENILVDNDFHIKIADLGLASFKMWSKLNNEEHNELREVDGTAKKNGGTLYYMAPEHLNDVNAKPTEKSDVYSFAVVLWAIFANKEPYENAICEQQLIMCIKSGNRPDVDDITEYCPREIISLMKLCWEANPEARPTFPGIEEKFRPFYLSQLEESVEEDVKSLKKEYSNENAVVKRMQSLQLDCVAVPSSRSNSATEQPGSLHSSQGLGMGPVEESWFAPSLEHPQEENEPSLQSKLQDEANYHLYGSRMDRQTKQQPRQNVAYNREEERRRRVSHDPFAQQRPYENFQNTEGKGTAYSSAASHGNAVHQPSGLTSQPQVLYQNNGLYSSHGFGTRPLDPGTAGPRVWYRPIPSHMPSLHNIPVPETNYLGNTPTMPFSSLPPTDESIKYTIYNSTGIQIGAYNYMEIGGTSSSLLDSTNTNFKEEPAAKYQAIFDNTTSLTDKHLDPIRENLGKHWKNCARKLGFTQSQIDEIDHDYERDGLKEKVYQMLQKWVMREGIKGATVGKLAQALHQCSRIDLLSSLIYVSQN
UniProt Q9Y572: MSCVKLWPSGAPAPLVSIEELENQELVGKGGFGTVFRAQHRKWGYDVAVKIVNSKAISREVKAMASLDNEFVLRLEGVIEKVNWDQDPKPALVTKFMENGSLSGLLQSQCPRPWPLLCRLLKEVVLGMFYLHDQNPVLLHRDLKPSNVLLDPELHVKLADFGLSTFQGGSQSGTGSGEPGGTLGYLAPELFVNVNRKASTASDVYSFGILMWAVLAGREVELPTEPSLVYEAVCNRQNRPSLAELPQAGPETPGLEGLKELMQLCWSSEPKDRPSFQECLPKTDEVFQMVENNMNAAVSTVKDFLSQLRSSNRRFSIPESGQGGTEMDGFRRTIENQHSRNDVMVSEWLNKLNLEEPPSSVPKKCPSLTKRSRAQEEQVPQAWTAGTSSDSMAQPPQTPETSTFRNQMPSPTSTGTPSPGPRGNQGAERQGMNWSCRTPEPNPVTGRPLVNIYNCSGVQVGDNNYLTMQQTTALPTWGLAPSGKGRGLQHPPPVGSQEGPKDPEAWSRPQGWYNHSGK

Molecular target: RIPK1 (human (endogenous in HT-29)) (UniProt Q13546)
Test: co-IP; immunoprecipitation with anti-RIPK1 antibody, then immunoblotting; HT-29-shNC or HT-29-shHtrA2 cells stimulated with T/S/Z for indicated times

binding: binds
Substance: RIPK3 (from UniProt Q9Y572 1-518)
